From PMC5527284
No constants are given. Whether binding was seen depends on the method and setting. A result given as binding can be weak or reduced; the word gives no strength. For part of these data: Binding seen in cells or lysates may run through a third protein.

Amino acid sequences for entries named in this document (tags omitted). A change or cut given only in a name is not applied to a line headed by its entry.
UniProt Q3TKT4: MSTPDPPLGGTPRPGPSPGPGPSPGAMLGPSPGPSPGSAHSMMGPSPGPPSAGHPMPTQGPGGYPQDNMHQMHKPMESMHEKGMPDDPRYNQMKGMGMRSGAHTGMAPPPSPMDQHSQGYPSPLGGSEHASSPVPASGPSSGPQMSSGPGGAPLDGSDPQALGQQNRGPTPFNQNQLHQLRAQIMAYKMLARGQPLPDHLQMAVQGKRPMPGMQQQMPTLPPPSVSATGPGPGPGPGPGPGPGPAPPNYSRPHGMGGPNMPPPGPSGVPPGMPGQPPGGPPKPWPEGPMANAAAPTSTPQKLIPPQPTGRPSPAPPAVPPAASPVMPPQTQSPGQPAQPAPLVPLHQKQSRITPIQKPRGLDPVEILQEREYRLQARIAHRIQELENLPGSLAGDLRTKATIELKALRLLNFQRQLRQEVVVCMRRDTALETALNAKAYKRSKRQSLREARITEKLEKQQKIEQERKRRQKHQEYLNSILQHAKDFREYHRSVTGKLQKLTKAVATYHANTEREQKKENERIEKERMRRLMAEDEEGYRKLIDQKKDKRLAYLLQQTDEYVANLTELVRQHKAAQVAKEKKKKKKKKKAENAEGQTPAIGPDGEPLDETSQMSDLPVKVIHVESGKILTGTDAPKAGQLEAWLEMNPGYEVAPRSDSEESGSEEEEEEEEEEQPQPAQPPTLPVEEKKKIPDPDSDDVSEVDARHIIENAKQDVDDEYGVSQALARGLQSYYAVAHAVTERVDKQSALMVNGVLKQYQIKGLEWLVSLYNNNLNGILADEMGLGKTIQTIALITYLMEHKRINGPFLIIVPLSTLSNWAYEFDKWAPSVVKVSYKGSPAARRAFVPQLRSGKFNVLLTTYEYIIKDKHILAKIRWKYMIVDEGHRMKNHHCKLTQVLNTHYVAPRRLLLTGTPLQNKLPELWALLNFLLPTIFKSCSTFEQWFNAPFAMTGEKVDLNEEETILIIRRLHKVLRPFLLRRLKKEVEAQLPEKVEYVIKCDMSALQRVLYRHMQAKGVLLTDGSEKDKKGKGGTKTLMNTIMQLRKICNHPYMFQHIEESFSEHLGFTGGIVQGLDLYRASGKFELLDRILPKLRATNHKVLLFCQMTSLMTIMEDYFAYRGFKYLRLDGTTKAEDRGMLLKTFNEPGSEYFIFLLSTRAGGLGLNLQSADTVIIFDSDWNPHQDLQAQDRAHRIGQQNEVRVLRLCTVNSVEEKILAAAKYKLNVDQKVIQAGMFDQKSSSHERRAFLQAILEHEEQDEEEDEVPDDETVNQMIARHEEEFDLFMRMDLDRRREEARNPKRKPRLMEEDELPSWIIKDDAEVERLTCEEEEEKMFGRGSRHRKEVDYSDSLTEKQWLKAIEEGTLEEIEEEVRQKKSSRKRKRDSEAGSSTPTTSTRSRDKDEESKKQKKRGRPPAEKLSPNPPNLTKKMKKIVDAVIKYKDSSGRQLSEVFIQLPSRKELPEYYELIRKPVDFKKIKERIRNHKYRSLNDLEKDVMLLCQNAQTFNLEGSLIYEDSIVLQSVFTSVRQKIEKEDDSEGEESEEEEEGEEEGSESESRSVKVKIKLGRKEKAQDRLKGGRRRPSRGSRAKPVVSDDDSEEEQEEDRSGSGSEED
UniProt Q6DIC0: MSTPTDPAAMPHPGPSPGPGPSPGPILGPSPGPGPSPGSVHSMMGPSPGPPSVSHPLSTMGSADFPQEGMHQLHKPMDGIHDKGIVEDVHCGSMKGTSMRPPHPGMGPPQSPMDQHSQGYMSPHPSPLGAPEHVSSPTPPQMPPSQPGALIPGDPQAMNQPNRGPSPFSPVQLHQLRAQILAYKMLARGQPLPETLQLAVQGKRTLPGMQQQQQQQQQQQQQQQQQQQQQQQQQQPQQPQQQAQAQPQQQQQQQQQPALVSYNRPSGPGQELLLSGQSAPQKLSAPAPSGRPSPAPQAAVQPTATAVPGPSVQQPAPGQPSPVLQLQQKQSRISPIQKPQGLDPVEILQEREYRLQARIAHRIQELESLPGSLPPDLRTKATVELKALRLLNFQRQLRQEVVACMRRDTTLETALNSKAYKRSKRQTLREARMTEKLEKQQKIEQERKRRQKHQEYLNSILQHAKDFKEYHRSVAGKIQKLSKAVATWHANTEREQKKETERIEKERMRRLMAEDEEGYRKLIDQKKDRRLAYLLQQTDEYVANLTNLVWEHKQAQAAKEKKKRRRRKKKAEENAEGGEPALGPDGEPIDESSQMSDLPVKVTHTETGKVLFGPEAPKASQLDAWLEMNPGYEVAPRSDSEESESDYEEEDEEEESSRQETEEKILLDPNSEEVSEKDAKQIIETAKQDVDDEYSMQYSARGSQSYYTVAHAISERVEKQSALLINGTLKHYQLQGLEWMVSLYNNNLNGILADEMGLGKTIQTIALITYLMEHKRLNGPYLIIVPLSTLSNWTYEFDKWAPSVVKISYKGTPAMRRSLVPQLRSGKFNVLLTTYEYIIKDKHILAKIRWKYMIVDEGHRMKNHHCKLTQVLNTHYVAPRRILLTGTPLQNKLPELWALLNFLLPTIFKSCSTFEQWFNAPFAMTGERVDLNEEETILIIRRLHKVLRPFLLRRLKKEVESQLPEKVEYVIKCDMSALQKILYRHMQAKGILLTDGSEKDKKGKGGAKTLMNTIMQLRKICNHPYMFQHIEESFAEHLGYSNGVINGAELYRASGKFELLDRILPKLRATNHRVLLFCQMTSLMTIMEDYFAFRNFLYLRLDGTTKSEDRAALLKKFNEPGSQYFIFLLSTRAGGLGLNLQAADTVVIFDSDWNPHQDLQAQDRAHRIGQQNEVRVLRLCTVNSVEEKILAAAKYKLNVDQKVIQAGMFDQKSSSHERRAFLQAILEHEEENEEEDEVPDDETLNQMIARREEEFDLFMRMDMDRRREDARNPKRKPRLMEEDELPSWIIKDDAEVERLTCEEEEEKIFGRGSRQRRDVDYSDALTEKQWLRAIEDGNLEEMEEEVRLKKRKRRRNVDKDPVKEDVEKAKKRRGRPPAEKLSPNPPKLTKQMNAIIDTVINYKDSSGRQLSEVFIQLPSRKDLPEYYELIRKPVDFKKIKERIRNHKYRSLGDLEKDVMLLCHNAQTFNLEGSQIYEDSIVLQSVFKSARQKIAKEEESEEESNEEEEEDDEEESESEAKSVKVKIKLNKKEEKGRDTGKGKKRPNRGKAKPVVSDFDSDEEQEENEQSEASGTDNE
UniProt P20065: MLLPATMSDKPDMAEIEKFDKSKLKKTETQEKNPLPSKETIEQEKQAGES

What was measured:
[1] = target: BRG1 (Brahma-related gene 1) in mouse heart (mouse (endogenous in heart)) (UniProt Q3TKT4); test: proximity ligation; Duolink II in situ PLA on cryosections of mouse embryonic and post-MI adult hearts; anti-rabbit PLUS and anti-mouse MINUS probes
[2] = target: BRM (Brahma) in mouse heart (mouse (endogenous in heart)) (UniProt Q6DIC0); test: sequential ChIP (re-ChIP); formaldehyde-fixed chromatin of mouse hearts (E11.5; adult primed with Tβ4, day 4 post-MI); first ChIP eluted and re-immunoprecipitated with a second antibody; qPCR of Wt1 ECRs, fold enrichment over IgG
[3] = target: BRG1 (Brahma-related gene 1) in mouse heart (mouse (endogenous in heart)) (UniProt Q3TKT4); test: as above

binding [1]: binds
binding [2]: binds
binding [3]: binds
Substance: Thymosin β4 (Tβ4) in mouse heart (from UniProt P20065)
